# Where a name gives a salt, the structure may show the parent alone. Some of the results follow. Single values are uncertain here, since repeats match poorly.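 ReNCell VM, a human fetal ventral-midbrain neural progenitor line, was differentiated without mitogens. Blinded raters scored images stained for doublecortin (early neurons) or tyrosine hydroxylase (dopaminergic neurons) against untreated wells (0 = no change). Scores were averaged across repeats and both raters, and compounds averaging 2 or more were selected as hits for retesting.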
# Key:
# [1] = test system: ReNCell VM; experiment: neuronal differentiation score (DCX+ cell fraction vs untreated, manual image score) (score (-3 to 3)); higher = more neuronal differentiation; conditions: 2 uM, 2 weeks
# [2] = test system: ReNCell VM; experiment: dopaminergic neuron differentiation score (TH+ cell fraction vs untreated, manual image score) (score (0 to 3)); higher = more TH+ dopaminergic neuron differentiation; conditions: 2 uM, 4 weeks, BDNF 10 ng/ml + GDNF 10 ng/ml
smiles,measurement,setting,value
O=c1c(O)c(-c2ccccc2)oc2cc(O)ccc12,neuronal differentiation score,[1]; library: Spectrum,inactive: 0
same,dopaminergic neuron differentiation score,[2]; library: Spectrum,inactive: 0
CCCCOCCOCCOCc1cc2c(cc1CCC)OCO2,neuronal differentiation score,[1]; library: Spectrum,inactive: 0
same,dopaminergic neuron differentiation score,[2]; library: Spectrum,inactive: 0
O=c1[nH]c(=O)n([C@H]2C[C@H](O)[C@@H](CO)O2)cc1F [Floxuridine],neuronal differentiation score,[1]; library: Prestwick,inactive: 0
same,dopaminergic neuron differentiation score,[2]; library: Prestwick,inactive: 0
CN(Cc1cc(Br)cc(Br)c1N)C1CCCCC1 [Bromhexine hydrochloride],neuronal differentiation score,[1]; library: Prestwick,inactive: 0
same,dopaminergic neuron differentiation score,[2]; library: Prestwick,inactive: 0
CC(C)CCC[C@@H](C)[C@H]1CC[C@H]2[C@@H]3C=CC4=CC(=O)CC[C@]4(C)[C@H]3CC[C@]12C,neuronal differentiation score,[1]; library: Spectrum,inactive: 0
same,dopaminergic neuron differentiation score,[2]; library: Spectrum,inactive: 0
COc1ccccc1C1(O)CCN(CCCn2c3ccccc3c3ccccc32)CC1 [NNC 05-2090 hydrochloride],neuronal differentiation score,[1]; library: Tocriscreen,inactive: 0
same,dopaminergic neuron differentiation score,[2]; library: Tocriscreen,inactive: 0
COc1cc(/C=C/C(N)=O)cc(OC)c1OC,neuronal differentiation score,[1]; library: Spectrum,inactive: 0
same,dopaminergic neuron differentiation score,[2]; library: Spectrum,inactive: 0
CCN(CC)CCOC(=O)C(Cc1cccc2ccccc12)CC1CCCO1 (centres undefined),neuronal differentiation score,[1]; library: Spectrum,inactive: 0
same,dopaminergic neuron differentiation score,[2]; library: Spectrum,inactive: 0
COc1cc2c(cc1OC)C1(O)C(=O)c3ccc(O)c(C(=O)O)c3OC1CO2 (centres undefined),neuronal differentiation score,[1]; library: Spectrum,inactive: 0
same,dopaminergic neuron differentiation score,[2]; library: Spectrum,inactive: 0
C=C[C@H]1CN2CC[C@H]1C[C@@H]2[C@@H](O)c1ccnc2ccc(OC)cc12,neuronal differentiation score,[1]; library: Spectrum,inactive: 0
same,dopaminergic neuron differentiation score,[2]; library: Spectrum,inactive: 0
CCOC(=O)O[C@]1(C(=O)COC(=O)CC)CC[C@H]2[C@@H]3CCC4=CC(=O)C=C[C@]4(C)[C@H]3[C@@H](O)C[C@@]21C [Prednicarbate],neuronal differentiation score,[1]; library: Prestwick,inactive: 0
same,dopaminergic neuron differentiation score,[2]; library: Prestwick,inactive: 0
Oc1cc2c(cc1O)C(c1ccccc1)CNCC2 (centres undefined),neuronal differentiation score,[1]; library: Tocriscreen,inactive: 0
same,dopaminergic neuron differentiation score,[2]; library: Tocriscreen,inactive: 0
CCOC(=O)[C@H](CCc1ccccc1)N[C@H]1CCc2ccccc2N(CC(=O)O)C1=O,neuronal differentiation score,[1]; library: Spectrum,inactive: 0
same,dopaminergic neuron differentiation score,[2]; library: Spectrum,inactive: 0
O=c1[nH]c2ccccc2n1CCCN1CCN(C(c2ccccc2)c2ccccc2)CC1 [Oxatomide],neuronal differentiation score,[1]; library: LOPAC,inactive: 0
same,dopaminergic neuron differentiation score,[2]; library: LOPAC,inactive: 0
N#C/C(=C\c1ccc(O)c(O)c1)C(=O)NCCCc1ccccc1 [Tyrphostin AG 555],neuronal differentiation score,[1]; library: LOPAC,inactive: 0
same,dopaminergic neuron differentiation score,[2]; library: LOPAC,inactive: 1
O=C(c1ccc2c(c1)OCCO2)N1CCCCC1,neuronal differentiation score,[1]; library: LOPAC,inactive: 0
same,dopaminergic neuron differentiation score,[2]; library: LOPAC,inactive: 0
CC[C@@]1(O)C(=O)OCc2c1cc1n(c2=O)Cc2cc3c(CN(C)C)c(O)ccc3nc2-1 [Topotecan],neuronal differentiation score,[1]; library: Prestwick,inactive: 0
same,dopaminergic neuron differentiation score,[2]; library: Prestwick,inactive: 0
O=C(O)c1cc(-c2ccccc2)nc2ccccc12,neuronal differentiation score,[1]; library: Spectrum,inactive: 0
same,dopaminergic neuron differentiation score,[2]; library: Spectrum,inactive: 1
CC(=O)Oc1cc(OC(C)=O)c2c(c1)O[C@H](c1ccc(OC(C)=O)c(OC(C)=O)c1)[C@@H](OC(C)=O)C2,neuronal differentiation score,[1]; library: Spectrum,inactive: 0
same,dopaminergic neuron differentiation score,[2]; library: Spectrum,inactive: 0
CC1=C(C(=O)O)N2C(=O)[C@@H](NC(=O)[C@H](N)c3ccccc3)[C@H]2SC1 [Cephalexin monohydrate],neuronal differentiation score,[1]; library: Prestwick,inactive: 0
same,dopaminergic neuron differentiation score,[2]; library: Prestwick,inactive: 0
C=C1c2cccc(O)c2C(=O)C2=C(O)[C@]3(O)C(=O)C(C(N)=O)=C(O)[C@@H](N(C)C)[C@@H]3[C@@H](O)[C@H]12 [Methacycline hydrochloride],neuronal differentiation score,[1]; library: Prestwick,inactive: 0
same,dopaminergic neuron differentiation score,[2]; library: Prestwick,inactive: 0
NC(=O)c1cc[n+](CC2=C(C(=O)[O-])N3C(=O)[C@@H](NC(=O)[C@@H](c4ccccc4)S(=O)(=O)O)[C@H]3SC2)cc1 [Cefsulodin sodium salt],neuronal differentiation score,[1]; library: Prestwick,inactive: 0
same,dopaminergic neuron differentiation score,[2]; library: Prestwick,inactive: 0
CC[C@@H](CO)NCCN[C@@H](CC)CO [Ethambutol dihydrochloride],neuronal differentiation score,[1]; library: Prestwick,inactive: 0
same,dopaminergic neuron differentiation score,[2]; library: Prestwick,inactive: 0
CC(=O)c1ccc2c(c1)N(CCCN1CCC(CCO)CC1)c1ccccc1S2 [Piperacetazine],neuronal differentiation score,[1]; library: Prestwick,inactive: 0
same,dopaminergic neuron differentiation score,[2]; library: Prestwick,inactive: 0
COc1ccc2[nH]c([S+]([O-])Cc3ncc(C)c(OC)c3C)nc2n1 (centres undefined),neuronal differentiation score,[1]; library: Spectrum,inactive: 0
same,dopaminergic neuron differentiation score,[2]; library: Spectrum,inactive: 0
O=C(O)C1CSCN1 (centres undefined),neuronal differentiation score,[1]; library: Spectrum,inactive: 0
same,dopaminergic neuron differentiation score,[2]; library: Spectrum,inactive: 0
CCN(CC)CCCC(C)Nc1c2ccc(Cl)cc2nc2ccc(OC)cc12 (centres undefined),neuronal differentiation score,[1]; library: Spectrum,inactive: 0
same,dopaminergic neuron differentiation score,[2]; library: Spectrum,inactive: 0

# For convenience, part of the list above.
smiles,measurement,setting,value
CC[C@@]1(O)C(=O)OCc2c1cc1n(c2=O)Cc2cc3c(CN(C)C)c(O)ccc3nc2-1 [Topotecan],neuronal differentiation score,[1]; library: Prestwick,inactive: 0
same,dopaminergic neuron differentiation score,[2]; library: Prestwick,inactive: 0
O=C(O)c1cc(-c2ccccc2)nc2ccccc12,neuronal differentiation score,[1]; library: Spectrum,inactive: 0

# — the supplement of paper PMC4635364
